Experimental data as given in article PMC12955996.

By UniProt entry, the sequences of proteins in these tests, tags left out. Where a name states a change or a piece, a line headed by the entry shows the natural chain unless it says otherwise.
UniProt Q8BH61: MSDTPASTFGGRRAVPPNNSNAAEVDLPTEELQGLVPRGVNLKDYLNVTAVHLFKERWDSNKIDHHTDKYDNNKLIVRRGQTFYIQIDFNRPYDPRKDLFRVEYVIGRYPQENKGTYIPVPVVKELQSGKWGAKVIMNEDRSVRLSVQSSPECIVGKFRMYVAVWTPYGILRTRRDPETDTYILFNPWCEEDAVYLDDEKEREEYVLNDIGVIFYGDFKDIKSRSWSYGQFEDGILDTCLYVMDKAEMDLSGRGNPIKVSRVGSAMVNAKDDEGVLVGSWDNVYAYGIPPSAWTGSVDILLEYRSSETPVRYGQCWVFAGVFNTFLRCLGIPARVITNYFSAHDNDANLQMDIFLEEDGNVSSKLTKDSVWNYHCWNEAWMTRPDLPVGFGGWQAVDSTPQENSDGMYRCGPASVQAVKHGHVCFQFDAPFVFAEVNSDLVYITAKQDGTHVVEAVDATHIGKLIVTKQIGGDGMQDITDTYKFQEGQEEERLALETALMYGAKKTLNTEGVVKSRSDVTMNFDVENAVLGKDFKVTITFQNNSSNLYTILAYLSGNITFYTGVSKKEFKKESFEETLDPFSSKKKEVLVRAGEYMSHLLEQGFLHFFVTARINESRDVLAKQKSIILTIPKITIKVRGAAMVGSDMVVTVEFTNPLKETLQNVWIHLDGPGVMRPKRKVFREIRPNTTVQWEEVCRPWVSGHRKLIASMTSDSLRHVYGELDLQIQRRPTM
UniProt P52480: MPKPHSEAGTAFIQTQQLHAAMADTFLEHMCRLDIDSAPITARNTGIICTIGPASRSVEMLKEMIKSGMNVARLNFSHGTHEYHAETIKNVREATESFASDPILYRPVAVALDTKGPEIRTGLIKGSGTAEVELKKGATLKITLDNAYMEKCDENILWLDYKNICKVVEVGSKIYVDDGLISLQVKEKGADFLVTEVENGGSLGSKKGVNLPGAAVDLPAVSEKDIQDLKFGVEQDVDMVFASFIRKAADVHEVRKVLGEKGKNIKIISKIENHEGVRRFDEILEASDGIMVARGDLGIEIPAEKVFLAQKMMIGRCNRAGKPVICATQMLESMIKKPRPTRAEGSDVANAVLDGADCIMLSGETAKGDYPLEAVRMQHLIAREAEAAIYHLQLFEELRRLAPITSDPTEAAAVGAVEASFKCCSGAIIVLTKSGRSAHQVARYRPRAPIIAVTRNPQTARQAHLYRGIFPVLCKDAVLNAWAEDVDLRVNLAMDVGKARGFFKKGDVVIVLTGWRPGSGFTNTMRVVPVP

Molecular target: Coagulation Factor XIII Subunit A (F13A1) (mouse (endogenous in BMDMs)) (UniProt Q8BH61)
Experiment: affinity purification with mass spectrometry; mass spectrometry (LC‐MS/MS) on F13A1 immunoprecipitates from BMDMs

binding: binds
Substance: pyruvate kinase M2 isoform (PKM2) (from UniProt P52480 1-531)

These are yes or no findings as the source states them, for the method shown. In cells and extracts the contact can be indirect. A yes stands for co-enrichment or nearness to the bait. Other partners may have been found.
